Results reported in the supplement of paper PMC6411743.
± gives the standard deviation of the averaged measurements. This is a selection; strong and weak results do not stand in their true shares. Small differences around the control level are noise.

Protein sequences, listed by entry. Tags and fused reporters are not part of them. Lines headed by an entry give the natural chain unless they say otherwise; changes in a name come on top.
UniProt Q9UM00: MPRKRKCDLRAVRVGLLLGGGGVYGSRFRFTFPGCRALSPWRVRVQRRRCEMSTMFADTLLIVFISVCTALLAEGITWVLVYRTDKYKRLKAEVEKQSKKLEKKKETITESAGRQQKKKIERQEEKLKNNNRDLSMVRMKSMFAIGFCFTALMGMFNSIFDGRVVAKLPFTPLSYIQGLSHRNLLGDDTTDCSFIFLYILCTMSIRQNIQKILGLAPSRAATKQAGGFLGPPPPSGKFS
UniProt Q9NYS0: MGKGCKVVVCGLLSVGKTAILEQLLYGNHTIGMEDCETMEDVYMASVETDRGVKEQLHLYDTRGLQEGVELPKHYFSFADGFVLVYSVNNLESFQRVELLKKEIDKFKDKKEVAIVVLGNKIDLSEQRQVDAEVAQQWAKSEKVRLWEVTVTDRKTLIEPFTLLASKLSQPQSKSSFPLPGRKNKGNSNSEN
UniProt Q9H9Q4: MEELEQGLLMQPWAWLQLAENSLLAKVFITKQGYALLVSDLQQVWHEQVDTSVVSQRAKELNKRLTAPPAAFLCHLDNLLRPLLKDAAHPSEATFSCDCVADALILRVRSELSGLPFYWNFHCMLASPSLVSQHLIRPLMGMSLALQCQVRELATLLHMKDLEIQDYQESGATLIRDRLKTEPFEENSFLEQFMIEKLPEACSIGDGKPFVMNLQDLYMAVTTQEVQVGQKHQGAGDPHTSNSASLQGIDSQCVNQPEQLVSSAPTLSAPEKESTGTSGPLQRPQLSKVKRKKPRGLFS
UniProt Q15032: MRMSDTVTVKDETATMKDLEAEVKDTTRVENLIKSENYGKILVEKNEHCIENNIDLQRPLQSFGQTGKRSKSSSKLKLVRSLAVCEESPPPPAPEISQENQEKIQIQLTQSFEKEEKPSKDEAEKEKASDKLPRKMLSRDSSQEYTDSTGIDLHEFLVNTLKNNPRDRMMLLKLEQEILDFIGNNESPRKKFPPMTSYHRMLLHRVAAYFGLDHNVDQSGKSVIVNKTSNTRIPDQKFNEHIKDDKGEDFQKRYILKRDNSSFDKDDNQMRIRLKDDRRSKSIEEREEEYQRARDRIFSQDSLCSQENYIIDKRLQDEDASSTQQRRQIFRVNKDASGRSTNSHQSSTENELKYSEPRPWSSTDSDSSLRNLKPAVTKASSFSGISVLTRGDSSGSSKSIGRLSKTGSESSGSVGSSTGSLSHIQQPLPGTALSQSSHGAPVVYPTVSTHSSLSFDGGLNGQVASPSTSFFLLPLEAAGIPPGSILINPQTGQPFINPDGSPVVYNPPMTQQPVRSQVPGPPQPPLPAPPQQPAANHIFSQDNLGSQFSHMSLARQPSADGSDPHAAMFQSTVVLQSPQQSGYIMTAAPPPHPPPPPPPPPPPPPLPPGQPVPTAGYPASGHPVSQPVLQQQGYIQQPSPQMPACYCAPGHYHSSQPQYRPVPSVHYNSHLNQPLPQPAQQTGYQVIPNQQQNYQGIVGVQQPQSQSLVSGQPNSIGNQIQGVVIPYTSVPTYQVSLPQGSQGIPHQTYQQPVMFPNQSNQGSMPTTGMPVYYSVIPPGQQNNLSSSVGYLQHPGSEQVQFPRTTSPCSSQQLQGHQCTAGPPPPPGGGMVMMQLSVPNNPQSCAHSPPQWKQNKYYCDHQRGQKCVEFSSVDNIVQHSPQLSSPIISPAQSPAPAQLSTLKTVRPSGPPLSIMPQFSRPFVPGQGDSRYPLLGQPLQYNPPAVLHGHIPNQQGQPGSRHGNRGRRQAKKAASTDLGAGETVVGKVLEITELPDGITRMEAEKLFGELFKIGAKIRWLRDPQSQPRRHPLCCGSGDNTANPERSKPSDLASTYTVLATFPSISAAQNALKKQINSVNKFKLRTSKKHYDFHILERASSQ
UniProt Q9UBQ5, whole entry: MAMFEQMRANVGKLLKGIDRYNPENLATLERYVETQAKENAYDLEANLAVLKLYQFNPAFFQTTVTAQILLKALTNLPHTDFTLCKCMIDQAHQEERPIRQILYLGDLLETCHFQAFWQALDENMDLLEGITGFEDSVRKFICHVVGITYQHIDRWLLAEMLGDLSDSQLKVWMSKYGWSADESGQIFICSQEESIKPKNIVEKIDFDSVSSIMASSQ
UniProt Q9BUR5: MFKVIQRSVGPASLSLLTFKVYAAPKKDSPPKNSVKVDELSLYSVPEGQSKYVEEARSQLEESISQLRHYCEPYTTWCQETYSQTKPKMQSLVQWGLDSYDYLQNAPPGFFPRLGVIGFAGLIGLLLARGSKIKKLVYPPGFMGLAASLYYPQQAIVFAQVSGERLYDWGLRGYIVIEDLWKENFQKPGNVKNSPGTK
UniProt Q9BTT0: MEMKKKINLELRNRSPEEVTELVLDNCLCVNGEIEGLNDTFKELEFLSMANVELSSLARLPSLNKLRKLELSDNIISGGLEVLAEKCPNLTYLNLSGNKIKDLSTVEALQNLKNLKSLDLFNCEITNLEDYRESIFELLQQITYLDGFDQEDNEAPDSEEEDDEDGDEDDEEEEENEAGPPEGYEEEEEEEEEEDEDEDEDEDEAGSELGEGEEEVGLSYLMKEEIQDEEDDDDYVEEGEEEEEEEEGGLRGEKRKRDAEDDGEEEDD
UniProt P08174: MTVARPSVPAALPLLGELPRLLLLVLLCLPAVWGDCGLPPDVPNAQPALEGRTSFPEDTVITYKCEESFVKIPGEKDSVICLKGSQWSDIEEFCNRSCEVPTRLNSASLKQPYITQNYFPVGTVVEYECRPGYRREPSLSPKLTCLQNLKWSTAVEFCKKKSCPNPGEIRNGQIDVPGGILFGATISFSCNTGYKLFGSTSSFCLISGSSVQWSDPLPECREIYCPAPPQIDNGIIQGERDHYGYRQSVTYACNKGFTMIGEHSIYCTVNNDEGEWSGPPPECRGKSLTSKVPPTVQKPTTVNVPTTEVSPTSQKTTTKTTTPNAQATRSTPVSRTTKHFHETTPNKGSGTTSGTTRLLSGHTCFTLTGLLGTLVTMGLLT
UniProt O95858: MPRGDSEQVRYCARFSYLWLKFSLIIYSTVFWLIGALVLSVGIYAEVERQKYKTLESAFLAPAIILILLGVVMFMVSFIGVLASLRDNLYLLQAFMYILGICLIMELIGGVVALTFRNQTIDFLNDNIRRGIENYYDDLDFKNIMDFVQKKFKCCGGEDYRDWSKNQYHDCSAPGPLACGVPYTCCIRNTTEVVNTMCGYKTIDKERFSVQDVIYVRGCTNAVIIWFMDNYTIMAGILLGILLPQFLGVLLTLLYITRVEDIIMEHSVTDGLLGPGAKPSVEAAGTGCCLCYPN
UniProt Q08117: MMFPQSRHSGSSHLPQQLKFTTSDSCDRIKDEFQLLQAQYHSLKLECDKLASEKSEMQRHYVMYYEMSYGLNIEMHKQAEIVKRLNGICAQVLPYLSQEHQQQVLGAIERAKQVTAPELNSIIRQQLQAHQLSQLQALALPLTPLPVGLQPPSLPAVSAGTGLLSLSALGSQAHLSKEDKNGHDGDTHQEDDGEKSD
UniProt Q96F10: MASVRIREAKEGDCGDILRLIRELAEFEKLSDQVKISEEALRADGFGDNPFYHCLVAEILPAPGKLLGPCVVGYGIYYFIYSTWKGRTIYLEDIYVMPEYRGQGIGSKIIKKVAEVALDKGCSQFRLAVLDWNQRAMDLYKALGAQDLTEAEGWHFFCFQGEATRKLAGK
UniProt Q9BRQ6: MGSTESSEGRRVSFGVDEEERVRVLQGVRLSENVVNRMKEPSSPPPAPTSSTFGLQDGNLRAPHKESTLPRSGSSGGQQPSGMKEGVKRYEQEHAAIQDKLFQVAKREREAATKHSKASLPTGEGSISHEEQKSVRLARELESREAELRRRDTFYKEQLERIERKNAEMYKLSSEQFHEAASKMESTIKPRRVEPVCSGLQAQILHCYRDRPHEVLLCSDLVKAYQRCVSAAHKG
UniProt Q07955, whole entry: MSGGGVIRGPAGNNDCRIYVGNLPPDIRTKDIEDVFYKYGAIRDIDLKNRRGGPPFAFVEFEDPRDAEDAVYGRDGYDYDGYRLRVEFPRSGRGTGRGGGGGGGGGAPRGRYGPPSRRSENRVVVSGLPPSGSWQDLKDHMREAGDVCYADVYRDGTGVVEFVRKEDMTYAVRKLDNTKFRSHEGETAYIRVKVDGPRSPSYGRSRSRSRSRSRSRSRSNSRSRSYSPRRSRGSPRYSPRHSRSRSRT
UniProt Q96GD4, whole entry: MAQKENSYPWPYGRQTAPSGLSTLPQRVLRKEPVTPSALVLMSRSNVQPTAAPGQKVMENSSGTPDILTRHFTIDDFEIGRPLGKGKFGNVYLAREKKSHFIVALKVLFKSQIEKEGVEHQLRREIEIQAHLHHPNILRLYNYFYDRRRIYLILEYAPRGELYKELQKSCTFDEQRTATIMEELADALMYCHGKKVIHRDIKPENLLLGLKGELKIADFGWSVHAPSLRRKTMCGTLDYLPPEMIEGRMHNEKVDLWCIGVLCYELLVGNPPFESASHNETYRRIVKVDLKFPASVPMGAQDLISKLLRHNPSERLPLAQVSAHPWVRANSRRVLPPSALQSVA
UniProt Q49A26: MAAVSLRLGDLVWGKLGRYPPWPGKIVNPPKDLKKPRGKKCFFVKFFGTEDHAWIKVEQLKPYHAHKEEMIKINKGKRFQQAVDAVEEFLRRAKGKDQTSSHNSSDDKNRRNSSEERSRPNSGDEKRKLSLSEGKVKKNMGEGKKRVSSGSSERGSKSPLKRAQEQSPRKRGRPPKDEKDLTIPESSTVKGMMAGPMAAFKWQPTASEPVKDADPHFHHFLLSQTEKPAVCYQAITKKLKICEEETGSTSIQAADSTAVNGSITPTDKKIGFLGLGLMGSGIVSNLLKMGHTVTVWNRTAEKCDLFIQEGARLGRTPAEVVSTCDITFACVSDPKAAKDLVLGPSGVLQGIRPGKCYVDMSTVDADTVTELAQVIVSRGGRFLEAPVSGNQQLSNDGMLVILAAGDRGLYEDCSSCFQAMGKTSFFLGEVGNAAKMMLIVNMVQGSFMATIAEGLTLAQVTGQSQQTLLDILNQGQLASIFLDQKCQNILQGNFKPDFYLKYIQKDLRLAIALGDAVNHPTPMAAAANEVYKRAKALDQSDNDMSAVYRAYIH
UniProt Q9NXW2: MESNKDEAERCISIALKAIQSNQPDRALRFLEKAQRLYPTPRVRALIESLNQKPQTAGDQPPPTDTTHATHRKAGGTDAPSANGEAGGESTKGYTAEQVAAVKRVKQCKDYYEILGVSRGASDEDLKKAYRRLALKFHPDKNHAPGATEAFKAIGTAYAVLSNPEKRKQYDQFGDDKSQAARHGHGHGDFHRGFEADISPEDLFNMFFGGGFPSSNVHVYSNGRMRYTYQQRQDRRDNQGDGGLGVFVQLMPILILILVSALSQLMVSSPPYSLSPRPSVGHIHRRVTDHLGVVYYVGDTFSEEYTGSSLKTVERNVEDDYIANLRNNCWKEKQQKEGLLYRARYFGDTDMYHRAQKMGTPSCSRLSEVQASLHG
UniProt O95232: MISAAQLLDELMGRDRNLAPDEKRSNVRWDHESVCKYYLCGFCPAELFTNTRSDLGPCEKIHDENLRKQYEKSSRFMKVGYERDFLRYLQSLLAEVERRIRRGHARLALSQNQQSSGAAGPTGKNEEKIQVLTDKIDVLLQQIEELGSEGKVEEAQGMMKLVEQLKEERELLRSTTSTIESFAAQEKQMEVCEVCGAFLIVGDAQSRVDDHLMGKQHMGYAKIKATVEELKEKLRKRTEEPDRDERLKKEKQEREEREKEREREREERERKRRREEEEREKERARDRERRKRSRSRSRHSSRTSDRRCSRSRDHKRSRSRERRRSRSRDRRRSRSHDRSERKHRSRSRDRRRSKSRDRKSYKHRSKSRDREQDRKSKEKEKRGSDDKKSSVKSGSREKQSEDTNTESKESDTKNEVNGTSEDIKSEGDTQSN
UniProt Q9Y592: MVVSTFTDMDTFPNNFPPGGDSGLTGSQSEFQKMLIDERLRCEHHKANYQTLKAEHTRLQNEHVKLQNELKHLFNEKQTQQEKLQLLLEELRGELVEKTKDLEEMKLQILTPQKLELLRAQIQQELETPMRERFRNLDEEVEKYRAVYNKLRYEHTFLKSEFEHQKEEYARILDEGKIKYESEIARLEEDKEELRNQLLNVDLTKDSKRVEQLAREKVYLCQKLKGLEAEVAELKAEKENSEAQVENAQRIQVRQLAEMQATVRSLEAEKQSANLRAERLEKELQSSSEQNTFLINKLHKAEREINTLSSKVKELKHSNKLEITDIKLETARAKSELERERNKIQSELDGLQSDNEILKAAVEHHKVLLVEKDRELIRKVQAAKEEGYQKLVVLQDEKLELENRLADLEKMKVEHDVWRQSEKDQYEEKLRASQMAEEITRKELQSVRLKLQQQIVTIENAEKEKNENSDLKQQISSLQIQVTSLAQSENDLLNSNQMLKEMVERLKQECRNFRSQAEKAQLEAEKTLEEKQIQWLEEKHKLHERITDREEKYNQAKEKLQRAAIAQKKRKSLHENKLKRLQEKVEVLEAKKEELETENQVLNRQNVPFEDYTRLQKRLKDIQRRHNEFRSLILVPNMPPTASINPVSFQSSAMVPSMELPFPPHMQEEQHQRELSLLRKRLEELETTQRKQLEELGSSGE

Compound: Nc1ncnc2c1ncn2[C@@H]1O[C@H](COP(=O)(O)OP(=O)(O)OP(=O)(O)O)[C@@H](O)[C@H]1O [adenosine triphosphate]
Experiment: NP40-soluble protein abundance relative to vehicle (solubility fold change) (ratio); higher = more soluble protein in presence of ATP
Summary of the method: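 Jurkat crude lysate prepared with a Dounce homogeniser was treated at eight concentrations spanning 0.1 to 10 mM, 10 min at room temperature then 3 min at 37 °C. Solubilisation with 0.8% NP40 and benzonase and ultracentrifugation preceded TMT labelling of the supernatant for LC-MS/MS. Fold change against the detergent-processed vehicle was determined per replicate from vsn-normalised intensities, across three independent experiments.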

| Target | NP40-soluble protein abundance (concentration: 0.1mM) | NP40-soluble protein abundance (concentration: 0.5mM) | NP40-soluble protein abundance (concentration: 1mM) | NP40-soluble protein abundance (concentration: 2mM) | NP40-soluble protein abundance (concentration: 4mM) | NP40-soluble protein abundance (concentration: 6mM) | NP40-soluble protein abundance (concentration: 8mM) | NP40-soluble protein abundance (concentration: 10mM) |
| --- | --- | --- | --- | --- | --- | --- | --- | --- |
| M0QXA7 and related entries (UniProt O95785) | 0.975 ± 0.028 | 0.973 ± 0.072 | – | – | – | – | – | – |
| J9JIE6 and related entries (UniProt Q9UM00) | 0.875 ± 0.074 | 0.913 ± 0.043 | – | – | – | – | – | – |
| J3KNA0 and related entries (UniProt Q15070) | 0.996 ± 0.039 | 0.958 ± 0.059 | – | – | – | – | – | – |
| G5E9P3 and related entries (UniProt Q9NYS0) | 1.32 ± 0.33 | 1.05 ± 0.096 | – | – | – | – | – | – |
| K7ER53 and related entries (UniProt O95644) | 0.987 ± 0.096 | 1.04 ± 0.07 | – | – | – | – | – | – |
| H3BMM9 and related entries (UniProt Q15287) | 1.01 ± 0.17 | 1.3 ± 0.18 | – | – | – | – | – | – |
| H7BYY1 and related entries (UniProt P09493) | 0.826 ± 0.18 | 0.777 ± 0.18 | – | – | – | – | – | – |
| K4DI83 and related entries (UniProt Q9HCN3) | 1.01 ± 0.041 | 1.02 ± 0.19 | – | – | – | – | – | – |
| H7C0G7 and related entries (UniProt Q9H9Q4) | 1.03 ± 0.22 | 1.07 ± 0.086 | – | – | – | – | – | – |
| H7C2F9 and related entries (UniProt Q15032) | 0.998 ± 0.085 | 0.962 ± 0.059 | – | – | – | – | – | – |
| K7ERF1 and related entries (UniProt Q9UBQ5) | 0.983 ± 0.013 | 1 ± 0.018 | – | – | – | – | – | – |
| J3QSH4 and related entries (UniProt Q14119) | 0.996 ± 0.045 | 0.994 ± 0.058 | – | – | – | – | – | – |
| J3KNG8 and related entries (UniProt Q8TF40) | 1.03 ± 0.092 | 0.982 ± 0.042 | – | – | – | – | – | – |
| H0Y362 and related entries (UniProt Q8NEW0) | 1.02 ± 0.018 | 0.939 ± 0.065 | – | – | – | – | – | – |
| H7C1U8 and related entries (UniProt Q9BUR5) | 0.968 ± 0.027 | 0.909 ± 0.068 | – | – | – | – | – | – |
| H7C2Q8 and related entries (UniProt Q99848) | 0.968 ± 0.13 | 1.11 ± 0.14 | – | – | – | – | – | – |
| H0YKW3 and related entries (UniProt Q9H079) | 0.954 ± 0.049 | 0.925 ± 0.02 | – | – | – | – | – | – |
| H0YCE2 and related entries (UniProt Q9BTT0) | 0.853 ± 0.081 | 0.853 ± 0.1 | – | – | – | – | – | – |
| H7BY55 and related entries (UniProt P08174) | 0.995 ± 0.058 | 0.986 ± 0.076 | – | – | – | – | – | – |

| Target | NP40-soluble protein abundance (concentration: 0.1mM) | NP40-soluble protein abundance (concentration: 0.5mM) | NP40-soluble protein abundance (concentration: 1mM) | NP40-soluble protein abundance (concentration: 2mM) | NP40-soluble protein abundance (concentration: 4mM) | NP40-soluble protein abundance (concentration: 6mM) | NP40-soluble protein abundance (concentration: 8mM) | NP40-soluble protein abundance (concentration: 10mM) |
| --- | --- | --- | --- | --- | --- | --- | --- | --- |
| H7C285 and related entries (UniProt O95858) | 1.07 ± 0.12 | 1.05 ± 0.12 | – | – | – | – | – | – |
| K7ELE3 and related entries (UniProt Q08117) | 0.945 ± 0.1 | 0.883 ± 0.087 | – | – | – | – | – | – |
| H0YNG3 and related entries (UniProt P67812) | 1.06 ± 0.11 | 1.02 ± 0.066 | – | – | – | – | – | – |
| J3KTE4 and related entries (UniProt P84098) | 0.948 ± 0.049 | 1.03 ± 0.052 | 1.01 ± 0.053 | 1 ± 0.027 | 0.968 ± 0.07 | 0.966 ± 0.043 | 0.908 ± 0.057 | 1.05 ± 0.094 |
| I3L0W4 and related entries (UniProt Q96F10) | 1 ± 0.068 | 0.951 ± 0.018 | 0.98 ± 0.13 | 0.932 ± 0.07 | 0.962 ± 0.073 | 0.963 ± 0.064 | 0.94 ± 0.025 | 0.944 ± 0.035 |
| J3QTA6 and related entries (UniProt Q9BRQ6) | 0.98 ± 0.11 | 0.949 ± 0.072 | 0.958 ± 0.12 | 0.921 ± 0.073 | 0.897 ± 0.087 | 0.925 ± 0.13 | 0.918 ± 0.093 | 0.874 ± 0.067 |
| H0YM92 and related entries (UniProt P01130) | 0.985 ± 0.017 | 0.987 ± 0.015 | 0.962 ± 0.026 | 0.977 ± 0.016 | 0.981 ± 0.023 | 0.966 ± 0.029 | 0.9771 ± 0.0072 | 0.987 ± 0.016 |
| G5E9V5 and related entries (UniProt P82650) | 0.952 ± 0.071 | 1.01 ± 0.076 | 1.01 ± 0.046 | 0.938 ± 0.079 | 0.892 ± 0.083 | 0.907 ± 0.18 | 0.88 ± 0.11 | 0.867 ± 0.1 |
| J3KTL2 and related entries (UniProt Q07955) | 0.997 ± 0.077 | 1.26 ± 0.055 | 1.41 ± 0.16 | 1.53 ± 0.14 | 1.7 ± 0.11 | 1.93 ± 0.19 | 1.89 ± 0.097 | 1.98 ± 0.093 |
| J3KTD6 and related entries (UniProt Q96GD4) | 1.08 ± 0.077 | 1.29 ± 0.1 | 1.37 ± 0.16 | 1.47 ± 0.18 | 1.6 ± 0.16 | 1.58 ± 0.25 | 1.71 ± 0.032 | 1.76 ± 0.072 |
| H7C5U8 and related entries (UniProt Q9P0M9) | 0.936 ± 0.26 | 1.03 ± 0.25 | 1.12 ± 0.16 | 0.995 ± 0.22 | 0.923 ± 0.19 | 0.944 ± 0.29 | 0.902 ± 0.19 | 0.894 ± 0.24 |
| K7EK70 and related entries (UniProt Q49A26) | 1.06 ± 0.068 | 1.11 ± 0.056 | 1.18 ± 0.095 | 1.25 ± 0.1 | 1.38 ± 0.1 | 1.45 ± 0.083 | 1.57 ± 0.16 | 1.76 ± 0.081 |
| H3BTR4 and related entries (UniProt Q96BT3) | 1.1 ± 0.16 | 1.06 ± 0.16 | 1.32 ± 0.023 | 1.41 ± 0.13 | 1.52 ± 0.21 | 1.72 ± 0.23 | 1.68 ± 0.17 | 1.87 ± 0.17 |
| J3KPS0 and related entries (UniProt Q9NXW2) | 0.997 ± 0.075 | 0.964 ± 0.098 | 0.902 ± 0.035 | 0.898 ± 0.056 | 0.867 ± 0.058 | 0.846 ± 0.12 | 0.845 ± 0.11 | 0.833 ± 0.1 |
| H7C5F5 and related entries (UniProt Q9H2U1) | 0.995 ± 0.081 | 1 ± 0.11 | 0.963 ± 0.068 | 0.979 ± 0.08 | 0.987 ± 0.073 | 1.01 ± 0.1 | 1.03 ± 0.088 | 1.02 ± 0.1 |
| J3KPP4 and related entries (UniProt O95232) | 1.22 ± 0.065 | 1.98 ± 0.17 | 2.04 ± 0.11 | 2.06 ± 0.14 | 2.12 ± 0.1 | 2.32 ± 0.14 | 2.27 ± 0.13 | 2.32 ± 0.18 |
| H0Y6E7 and related entries (UniProt P38159) | 1 ± 0.022 | 1.08 ± 0.018 | 1.13 ± 0.068 | 1.22 ± 0.042 | 1.34 ± 0.046 | 1.56 ± 0.087 | 1.62 ± 0.026 | 1.79 ± 0.064 |
| J9JID7 and related entries (UniProt Q03252) | 0.989 ± 0.029 | 1.03 ± 0.024 | 1 ± 0.066 | 0.943 ± 0.063 | 1.01 ± 0.065 | 1.06 ± 0.037 | 1.03 ± 0.047 | 1.09 ± 0.059 |
| J3KNW7 and related entries (UniProt Q9Y592) | 1.03 ± 0.1 | 1.02 ± 0.064 | 1.06 ± 0.072 | 0.9299 ± 0.0068 | 1.02 ± 0.032 | 1.04 ± 0.028 | 1.07 ± 0.062 | 0.993 ± 0.077 |

Single records (already shown).
J3QTA6 and related entries (UniProt Q9BRQ6) as listed: NP40-soluble protein abundance (concentration: 0.1mM): 0.98 ± 0.11; NP40-soluble protein abundance (concentration: 0.5mM): 0.949 ± 0.072; NP40-soluble protein abundance (concentration: 1mM): 0.958 ± 0.12; NP40-soluble protein abundance (concentration: 2mM): 0.921 ± 0.073; NP40-soluble protein abundance (concentration: 4mM): 0.897 ± 0.087; NP40-soluble protein abundance (concentration: 6mM): 0.925 ± 0.13; NP40-soluble protein abundance (concentration: 8mM): 0.918 ± 0.093; NP40-soluble protein abundance (concentration: 10mM): 0.874 ± 0.067
J3KPP4 and related entries (UniProt O95232) as listed: NP40-soluble protein abundance (concentration: 0.1mM): 1.22 ± 0.065; NP40-soluble protein abundance (concentration: 0.5mM): 1.98 ± 0.17; NP40-soluble protein abundance (concentration: 1mM): 2.04 ± 0.11; NP40-soluble protein abundance (concentration: 2mM): 2.06 ± 0.14; NP40-soluble protein abundance (concentration: 4mM): 2.12 ± 0.1; NP40-soluble protein abundance (concentration: 6mM): 2.32 ± 0.14; NP40-soluble protein abundance (concentration: 8mM): 2.27 ± 0.13; NP40-soluble protein abundance (concentration: 10mM): 2.32 ± 0.18
